Data published in PMC10808187.
Results are given in words; binding and its absence hold for the method and conditions named. In cells and extracts the contact can be indirect. Some binding calls cover weakened binding; strength is not graded here. For part of these data: Where a sequence is shown, tags or fusion partners need not be part of it. Values belong to the molecule of their own block, whether it stands above or below them.

Amino acid sequences for entries named in this document (tags omitted).
UniProt Q8R4B8: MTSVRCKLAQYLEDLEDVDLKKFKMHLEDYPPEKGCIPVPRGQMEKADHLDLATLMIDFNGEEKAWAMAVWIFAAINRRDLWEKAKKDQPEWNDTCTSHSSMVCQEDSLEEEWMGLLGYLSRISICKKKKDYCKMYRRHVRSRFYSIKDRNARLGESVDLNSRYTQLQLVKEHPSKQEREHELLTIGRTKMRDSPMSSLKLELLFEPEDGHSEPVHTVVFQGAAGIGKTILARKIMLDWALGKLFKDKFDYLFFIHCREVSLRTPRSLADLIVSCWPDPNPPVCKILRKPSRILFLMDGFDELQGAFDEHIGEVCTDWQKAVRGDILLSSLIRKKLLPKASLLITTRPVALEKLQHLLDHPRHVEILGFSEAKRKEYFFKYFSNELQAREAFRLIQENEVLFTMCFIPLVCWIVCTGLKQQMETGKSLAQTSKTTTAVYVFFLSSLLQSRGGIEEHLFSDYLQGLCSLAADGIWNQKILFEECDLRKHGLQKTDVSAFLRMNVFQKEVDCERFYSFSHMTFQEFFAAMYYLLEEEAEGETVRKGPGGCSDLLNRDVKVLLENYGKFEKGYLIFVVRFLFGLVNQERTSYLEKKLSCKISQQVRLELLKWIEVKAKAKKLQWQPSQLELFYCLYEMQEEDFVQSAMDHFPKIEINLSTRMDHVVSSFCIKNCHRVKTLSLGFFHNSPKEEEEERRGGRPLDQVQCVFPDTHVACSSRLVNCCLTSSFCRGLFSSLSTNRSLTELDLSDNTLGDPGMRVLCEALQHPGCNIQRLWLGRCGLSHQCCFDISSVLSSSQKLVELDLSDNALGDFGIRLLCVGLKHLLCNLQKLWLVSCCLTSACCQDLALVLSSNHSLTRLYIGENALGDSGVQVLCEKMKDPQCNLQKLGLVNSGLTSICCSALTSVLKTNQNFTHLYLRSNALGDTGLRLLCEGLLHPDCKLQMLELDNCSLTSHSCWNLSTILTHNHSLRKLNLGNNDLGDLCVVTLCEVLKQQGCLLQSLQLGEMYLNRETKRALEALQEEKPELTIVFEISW

What was measured:
[1] = molecular target: T1, GST-HECTD3-DOC (human) (UniProt Q5T447); experiment: pull-down; transfected HEK293T cells lysed in IP lysis buffer (50 mM Tris-HCl, 5 mM EDTA, 150 mM NaCl, 0.5% Nonidet-P40, 10% glycerol, pH 7.4); GST beads at 4 °C overnight, washed 5 times, Western blot
T1 sequence: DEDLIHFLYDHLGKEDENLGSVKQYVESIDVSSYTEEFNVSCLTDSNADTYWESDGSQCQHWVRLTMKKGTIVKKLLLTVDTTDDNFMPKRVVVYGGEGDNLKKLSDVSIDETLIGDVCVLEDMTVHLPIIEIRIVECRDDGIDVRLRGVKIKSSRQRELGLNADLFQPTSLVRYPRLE

[2] = molecular target: T2, 3×Flag-tagged HECTD3 (human) (UniProt Q5T447); experiment: co-IP; transfected HEK293T cells lysed in IP lysis buffer (50 mM Tris-HCl, 5 mM EDTA, 150 mM NaCl, 0.5% Nonidet-P40, 10% glycerol, pH 7.4); Flag-M2 beads at 4 °C overnight, washed 5 times, Western blot; in some panels 2.5 mM ATP, HECTD3 siRNA or co-expressed HECTD3 constructs
T2 sequence: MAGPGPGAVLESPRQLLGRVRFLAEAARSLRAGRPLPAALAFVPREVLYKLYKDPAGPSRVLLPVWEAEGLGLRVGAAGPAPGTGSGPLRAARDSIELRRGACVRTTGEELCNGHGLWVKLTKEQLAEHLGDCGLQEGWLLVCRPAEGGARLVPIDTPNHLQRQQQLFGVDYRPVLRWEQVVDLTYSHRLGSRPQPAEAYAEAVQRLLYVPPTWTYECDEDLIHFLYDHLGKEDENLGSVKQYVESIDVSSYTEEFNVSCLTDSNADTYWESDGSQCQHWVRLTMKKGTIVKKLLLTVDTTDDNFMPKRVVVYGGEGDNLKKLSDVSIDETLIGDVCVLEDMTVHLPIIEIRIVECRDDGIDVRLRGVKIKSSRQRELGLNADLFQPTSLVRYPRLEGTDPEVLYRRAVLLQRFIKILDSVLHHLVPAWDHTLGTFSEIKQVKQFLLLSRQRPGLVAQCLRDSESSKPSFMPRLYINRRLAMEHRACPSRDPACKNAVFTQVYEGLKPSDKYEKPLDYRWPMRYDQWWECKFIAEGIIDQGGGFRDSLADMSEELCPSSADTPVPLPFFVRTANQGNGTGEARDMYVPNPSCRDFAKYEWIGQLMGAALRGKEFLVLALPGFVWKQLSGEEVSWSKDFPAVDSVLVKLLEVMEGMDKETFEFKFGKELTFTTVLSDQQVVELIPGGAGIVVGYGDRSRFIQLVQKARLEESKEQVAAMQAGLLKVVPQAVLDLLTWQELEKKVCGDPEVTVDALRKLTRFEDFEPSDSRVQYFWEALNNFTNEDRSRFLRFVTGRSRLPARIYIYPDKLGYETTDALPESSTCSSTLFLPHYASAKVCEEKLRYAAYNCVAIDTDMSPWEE

[3] = molecular target: GST-tagged NLRP3 (mouse) (UniProt Q8R4B8); experiment: pull-down; transfected HEK293T cells lysed in IP lysis buffer (50 mM Tris-HCl, 5 mM EDTA, 150 mM NaCl, 0.5% Nonidet-P40, 10% glycerol, pH 7.4); GST beads at 4 °C overnight, washed 5 times, Western blot
[4] = molecular target: 3×Flag-tagged NLRP3 (mouse) (UniProt Q8R4B8); experiment: co-IP; transfected HEK293T cells lysed in IP lysis buffer (50 mM Tris-HCl, 5 mM EDTA, 150 mM NaCl, 0.5% Nonidet-P40, 10% glycerol, pH 7.4); Flag-M2 beads at 4 °C overnight, washed 5 times, Western blot; in some panels 2.5 mM ATP, HECTD3 siRNA or co-expressed HECTD3 constructs
[5] = molecular target: endogenous NLRP3 (mouse (endogenous in BMDMs)) (UniProt Q8R4B8); experiment: co-IP; lysates of mouse BMDMs (LPS plus ATP; Hectd3+/+, Hectd3-/-, WT or Hectd3 KI) incubated with 2 μg/mL anti-NLRP3 antibody or isotype-matched IgG at 4 °C overnight, protein A/G beads 1 h, washed 5 times with IP lysis buffer, Western blot

binding [4]: binds
B2: HECTD3C823A (enzyme, UniProt Q5T447 1-861)
chain: MAGPGPGAVLESPRQLLGRVRFLAEAARSLRAGRPLPAALAFVPREVLYKLYKDPAGPSRVLLPVWEAEGLGLRVGAAGPAPGTGSGPLRAARDSIELRRGACVRTTGEELCNGHGLWVKLTKEQLAEHLGDCGLQEGWLLVCRPAEGGARLVPIDTPNHLQRQQQLFGVDYRPVLRWEQVVDLTYSHRLGSRPQPAEAYAEAVQRLLYVPPTWTYECDEDLIHFLYDHLGKEDENLGSVKQYVESIDVSSYTEEFNVSCLTDSNADTYWESDGSQCQHWVRLTMKKGTIVKKLLLTVDTTDDNFMPKRVVVYGGEGDNLKKLSDVSIDETLIGDVCVLEDMTVHLPIIEIRIVECRDDGIDVRLRGVKIKSSRQRELGLNADLFQPTSLVRYPRLEGTDPEVLYRRAVLLQRFIKILDSVLHHLVPAWDHTLGTFSEIKQVKQFLLLSRQRPGLVAQCLRDSESSKPSFMPRLYINRRLAMEHRACPSRDPACKNAVFTQVYEGLKPSDKYEKPLDYRWPMRYDQWWECKFIAEGIIDQGGGFRDSLADMSEELCPSSADTPVPLPFFVRTANQGNGTGEARDMYVPNPSCRDFAKYEWIGQLMGAALRGKEFLVLALPGFVWKQLSGEEVSWSKDFPAVDSVLVKLLEVMEGMDKETFEFKFGKELTFTTVLSDQQVVELIPGGAGIVVGYGDRSRFIQLVQKARLEESKEQVAAMQAGLLKVVPQAVLDLLTWQELEKKVCGDPEVTVDALRKLTRFEDFEPSDSRVQYFWEALNNFTNEDRSRFLRFVTGRSRLPARIYIYPDKLGYETTDALPESSTASSTLFLPHYASAKVCEEKLRYAAYNCVAIDTDMSPWEE

binding [5]: binds
B3: endogenous HECTD3 (enzyme, UniProt Q3U487 1-861)
chain: MAGPGPGAALESPRQLLGRVRFLAEAARSLRAGLPLPAALAFVPREVLYKLYKDPAGPSRVLLPVWEAEGLGLRVGAVGAAPGTGSGPLRAARDSIELRRGACVRTTGEELCNGHGLWVKLTKEQLAEHLSDCSLDEGWLLVCRPAEGGARLVPIDTPDHLQRQQQLFGVDYRPVLRWEQVVDLTYSHRLGSRPQPAEAYTEAIQRLLYVPPTWTYECDEDLIHFLYDHLGKEDENLGSVKQYVESIDVSSYTEEFNVSCLTDSNADTYWESDGSQCQHWVRLTMKKGTIVKKLLLTVDTTDDNFMPKRVVVYGGEGDNLKKLSDVNIDETLIGDVCVLEDMTVHLPIIEIRIVECRDDGIDVRLRGVKIKSSRQRELGLNADLFQPASLVRYPRLEGTDPEVLYRRAVLLQRFIKILDSVLHHLVPAWDHTLGTFSEIKQVKQFLLLSRQRPSLVAQCLRDSESSKPSFMPRLYINRRLAMEHRACPSRDPACKNAVFTQVYEGLKPSDKYEKPLDYRWPMRYDQWWECKFIAEGIIDQGGGFRDSLADMSEELCPSSADTPVPLPFFVRTANQGNGTGEARDMYVPNPSCRDFAKYEWIGQLMGAALRGKEFLVLALPGFVWKQLSGEEVSWSKDFPAVDSVLVKLLEVMEGVDKETFEFKFGKELTFTTVLSDQQVVELIPGGTGIVVEYEDRSRFIQLVRKARLEESKEQVAAMQAGLLKVVPQAVLDLLTWQELEKKVCGDPEVTVDALRKLTRFEDFEPSDTRVQYFWEALNNFTNEDRSRFLRFVTGRSRLPARIYIYPDKLGYETTDALPESSTCSSTLFLPHYASAKVCEEKLRYAAYNCVAIDTDMSPWEE

More lines, now with the values behind:

Molecule: 3×Flag-tagged NLRP3 (from UniProt Q8R4B8 1-1033)
binding [1]: binds

Molecule: GST-tagged NLRP3 (from UniProt Q8R4B8 1-1033)
binding [2]: binds

B1: HECTD3 (enzyme, UniProt Q5T447 1-861)
chain: MAGPGPGAVLESPRQLLGRVRFLAEAARSLRAGRPLPAALAFVPREVLYKLYKDPAGPSRVLLPVWEAEGLGLRVGAAGPAPGTGSGPLRAARDSIELRRGACVRTTGEELCNGHGLWVKLTKEQLAEHLGDCGLQEGWLLVCRPAEGGARLVPIDTPNHLQRQQQLFGVDYRPVLRWEQVVDLTYSHRLGSRPQPAEAYAEAVQRLLYVPPTWTYECDEDLIHFLYDHLGKEDENLGSVKQYVESIDVSSYTEEFNVSCLTDSNADTYWESDGSQCQHWVRLTMKKGTIVKKLLLTVDTTDDNFMPKRVVVYGGEGDNLKKLSDVSIDETLIGDVCVLEDMTVHLPIIEIRIVECRDDGIDVRLRGVKIKSSRQRELGLNADLFQPTSLVRYPRLEGTDPEVLYRRAVLLQRFIKILDSVLHHLVPAWDHTLGTFSEIKQVKQFLLLSRQRPGLVAQCLRDSESSKPSFMPRLYINRRLAMEHRACPSRDPACKNAVFTQVYEGLKPSDKYEKPLDYRWPMRYDQWWECKFIAEGIIDQGGGFRDSLADMSEELCPSSADTPVPLPFFVRTANQGNGTGEARDMYVPNPSCRDFAKYEWIGQLMGAALRGKEFLVLALPGFVWKQLSGEEVSWSKDFPAVDSVLVKLLEVMEGMDKETFEFKFGKELTFTTVLSDQQVVELIPGGAGIVVGYGDRSRFIQLVQKARLEESKEQVAAMQAGLLKVVPQAVLDLLTWQELEKKVCGDPEVTVDALRKLTRFEDFEPSDSRVQYFWEALNNFTNEDRSRFLRFVTGRSRLPARIYIYPDKLGYETTDALPESSTCSSTLFLPHYASAKVCEEKLRYAAYNCVAIDTDMSPWEE
binding [3]: binds
binding [4]: binds
